{"source": "paper PMC5291249", "key": {"mp53Δ30 (mouse) [1]": {"biological_target": "mp53Δ30 (mouse) (UniProt P02340)", "assay": "EMSA (GA cross-linked, IR dye)", "settings": "25 mM Tris-HCl pH 7.5, 2 mM DTT, 100 mM NaCl, 1 mM ADP, 5 mM MgCl2 (or 20 mM HEPES pH 7.5, 10 mM ADP), 25 C, then 0.025% glutaraldehyde 20 min; recombinant protein; label: 5' IR800 both strands"}, "[2]": {"biological_target": "human p53 (hp53) (Homo sapiens) (UniProt P04637)", "assay": "EMSA (GA cross-linked, IR dye)", "settings": "25 mM Tris-HCl pH 7.5, 2 mM DTT, 100 mM NaCl, 1 mM ADP, 5 mM MgCl2 (or 20 mM HEPES pH 7.5, 10 mM ADP), 25 C, then 0.025% glutaraldehyde 20 min, recombinant protein, residues 1-393, label: 5' IR800 both strands"}, "[3]": {"biological_target": "murine p53 (mp53) (mouse) (UniProt P02340)", "assay": "EMSA (GA cross-linked, IR dye)", "settings": "25 mM Tris-HCl pH 7.5, 2 mM DTT, 100 mM NaCl, 1 mM ADP, 5 mM MgCl2 (or 20 mM HEPES pH 7.5, 10 mM ADP), 25 C, then 0.025% glutaraldehyde 20 min, recombinant protein, label: 5' IR800 both strands"}, "mp53Δ30 (mouse) [4]": {"biological_target": "mp53Δ30 (mouse) (UniProt P02340)", "assay": "EMSA (GA cross-linked SDS-PAGE)", "settings": "as full length; 25 mM Tris-HCl pH 7.5, 2 mM DTT, 100 mM NaCl, 1 mM ADP, 5 mM MgCl2 (or 20 mM HEPES pH 7.5, 10 mM ADP), 25 C, then 0.025% glutaraldehyde 20 min; recombinant protein"}, "[5]": {"biological_target": "murine p53 (mp53) (mouse) (UniProt P02340)", "assay": "EMSA (GA cross-linked SDS-PAGE)", "settings": "25 mM Tris-HCl pH 7.5, 2 mM DTT, 100 mM NaCl, 1 mM ADP, 5 mM MgCl2 (or 20 mM HEPES pH 7.5, 10 mM ADP), 25 C, then 0.025% glutaraldehyde 20 min, recombinant protein"}, "[6]": {"biological_target": "human p53 (hp53) (Homo sapiens) (UniProt P04637)", "assay": "EMSA (GA cross-linked SDS-PAGE)", "settings": "25 mM Tris-HCl pH 7.5, 2 mM DTT, 100 mM NaCl, 1 mM ADP, 5 mM MgCl2 (or 20 mM HEPES pH 7.5, 10 mM ADP), 25 C, then 0.025% glutaraldehyde 20 min; recombinant protein; residues 1-393"}, "[7]": {"settings": "no stimulation of multiple tetramers"}, "[8]": {"settings": "no stimulation of multiple tetramers over no DNA, letters put together from the description"}}, "note": "A weaker result is weaker than the reference pair of the same experiment. The exact form of at least one protein or probe is not confirmed. At least one verdict was read from the data and is not stated in words by the source."}
{"sequence": "TGAAATGAACATGTCTGTAGGCATGCTGAATTAA (double strand) [gadd45_2]", "values": [{"measurement": "binding result", "setting": "mp53Δ30 (mouse) [1]", "result": "binds more weakly"}, {"measurement": "binding result", "setting": "[2]", "result": "binds more weakly"}, {"measurement": "binding result", "setting": "[3]", "result": "binds more weakly"}]}
{"sequence": "AGCATTGGCTTTCTGGCCATCAGAGACATGCCTAGACATGCCTAGCTCTGGCATAGAAGAGGCGCT (double strand) [DNA21]", "values": [{"measurement": "binding result", "setting": "mp53Δ30 (mouse) [4]", "result": "binds"}]}
{"sequence": "AGCATTGGCTTTCTGGCCATCAGAGACATGCCTATGAATGCCTAGCTCTGGCATAGAAGAGGCGCT (double strand) [DNA23]", "values": [{"measurement": "binding result", "setting": "mp53Δ30 (mouse) [4]", "result": "binds more weakly"}, {"measurement": "binding result", "setting": "[5]; [7]", "result": "binds more weakly"}]}
{"sequence": "TGAAATGAACATGTCTGTGAGGCATGCTGAATTA (double strand) [gadd45_3]", "values": [{"measurement": "binding result", "setting": "mp53Δ30 (mouse) [1]", "result": "binds more weakly"}, {"measurement": "binding result", "setting": "[2]", "result": "binds more weakly"}, {"measurement": "binding result", "setting": "[3]", "result": "binds more weakly"}]}
{"sequence": "AGACATGCCTATGAATTAAT (double strand) [DNA5]", "values": [{"measurement": "binding result", "setting": "[5]; [8]", "result": "binds more weakly"}]}
{"sequence": "AGCATTGGCTTTCTGGCCATCAGAGACATGCCTATGAATTAATAGACATGCCTAGCTCTGGCATAGAAGAGGCGCT (double strand) [DNA36 (10 bp spacer)]", "values": [{"measurement": "binding result", "setting": "[6]", "result": "binds more weakly"}, {"measurement": "binding result", "setting": "[5]", "result": "binds more weakly"}]}
{"sequence": "AGCATTGGCTTTCTGGCCATCAGAGACATGCCTATGCCTTAATATGAAAGACATGCCTAGCTCTGGCATAGAAGAGGCGCT (double strand) [DNA37 (15 bp spacer)]", "values": [{"measurement": "binding result", "setting": "[6]", "result": "binds more weakly"}, {"measurement": "binding result", "setting": "[5]", "result": "binds more weakly"}]}
{"sequence": "ATGAAAGACATGCCTTTAAT (double strand) [DNA4]", "values": [{"measurement": "binding result", "setting": "[5]; [8]", "result": "binds more weakly"}]}
{"sequence": "AGCATTGGCTTTCTGGCCATCAGGAAAATTTCCCAAAATTTTGAGCTCTGGCATAGAAGAGGCGCT (double strand) [DNA20]", "values": [{"measurement": "binding result", "setting": "mp53Δ30 (mouse) [4]", "result": "binds more weakly"}, {"measurement": "binding result", "setting": "[5]; [7]", "result": "binds more weakly"}]}
{"sequence": "AGCATTGGCTTTCTGGCCATCAGAGACATGCCTGTGAGACATGCCTAGCTCTGGCATAGAAGAGGCGCT (double strand) [DNA33 (3 bp spacer)]", "values": [{"measurement": "binding result", "setting": "[6]", "result": "binds more weakly"}, {"measurement": "binding result", "setting": "[5]", "result": "binds more weakly"}]}
{"sequence": "AGCATTGGCTTTCTGGCCATCAGAGACATGCCTGTGGAGACATGCCTAGCTCTGGCATAGAAGAGGCGCT (double strand) [DNA34 (4 bp spacer)]", "values": [{"measurement": "binding result", "setting": "[6]", "result": "binds more weakly"}, {"measurement": "binding result", "setting": "[5]", "result": "binds more weakly"}]}
{"sequence": "AGCATTGGCTTTCTGGCCATCAGAGACATGTCCACAGACTTGTCTAGCTCTGGCATAGAAGAGGCGCT (double strand) [Tigar_SP (2 bp spacer)]", "values": [{"measurement": "binding result", "setting": "[6]", "result": "binds more weakly"}, {"measurement": "binding result", "setting": "[5]", "result": "binds more weakly"}]}
{"sequence": "AGACATGCCTATGAATGCCT (double strand) [DNA3]", "values": [{"measurement": "binding result", "setting": "[5]; [8]", "result": "binds more weakly"}]}
{"sequence": "GAAATTCGATCCTCTATGAATTAATAATTA (double strand) [NSP]", "values": [{"measurement": "binding result", "setting": "[2]; negative control", "result": "binds more weakly"}, {"measurement": "binding result", "setting": "[3]; negative control", "result": "binds more weakly"}]}
{"sequence": "AGACATGCCTAGACAAATTA (double strand) [DNA2]", "values": [{"measurement": "binding result", "setting": "[5]; [8]", "result": "binds more weakly"}]}
{"sequence": "ATGAAATGAACATGTCTGAGGCATGCTGAATTAA (double strand) [gadd45_1]", "values": [{"measurement": "binding result", "setting": "mp53Δ30 (mouse) [1]", "result": "binds"}]}
{"sequence": "AGCATTGGCTTTCTGGCCATCAGATGAAAGACATGCCTTTAATAGCTCTGGCATAGAAGAGGCGCT (double strand) [DNA24]", "values": [{"measurement": "binding result", "setting": "mp53Δ30 (mouse) [4]", "result": "binds more weakly"}, {"measurement": "binding result", "setting": "[5]; [7]", "result": "binds more weakly"}]}
{"sequence": "AGCATTGGCTTTCTGGCCATCAGAAGACATGCCTGTGGAAGACATGCCTAGCTCTGGCATAGAAGAGGCGCT / AGCGCCTCTTCTATGCCAGAGCTAGGCATGTCTATCCACAGGCATGTCTCTGATGGCCAGAAAGCCAATGCT [DNA35]", "values": [{"measurement": "binding result", "setting": "[6]", "result": "binds more weakly"}, {"measurement": "binding result", "setting": "[5]", "result": "binds more weakly"}]}
{"sequence": "AGCATTGGCTTTCTGGCCATCAGAGACATGCCTATGAATTAATAGCTCTGGCATAGAAGAGGCGCT (double strand) [DNA25]", "values": [{"measurement": "binding result", "setting": "mp53Δ30 (mouse) [4]", "result": "binds more weakly"}, {"measurement": "binding result", "setting": "[5]; [7]", "result": "binds more weakly"}]}
{"sequence": "GAAATGAACATGTCTGTGTAAGGCATGCTGAATTA (double strand) [gadd45_5]", "values": [{"measurement": "binding result", "setting": "mp53Δ30 (mouse) [1]", "result": "binds more weakly"}, {"measurement": "binding result", "setting": "[2]", "result": "binds more weakly"}, {"measurement": "binding result", "setting": "[3]", "result": "binds more weakly"}]}
{"sequence": "AGCATTGGCTTTCTGGCCATCAGAGACATGCCTAGACAAATTAAGCTCTGGCATAGAAGAGGCGCT (double strand) [DNA22]", "values": [{"measurement": "binding result", "setting": "mp53Δ30 (mouse) [4]", "result": "binds more weakly"}, {"measurement": "binding result", "setting": "[5]; [7]", "result": "binds more weakly"}]}
{"sequence": "AGCATTGGCTTTCTGGCCATCAGAGACATGCCTGTAGACATGCCTAGCTCTGGCATAGAAGAGGCGCT (double strand) [DNA32 (2 bp spacer)]", "values": [{"measurement": "binding result", "setting": "[6]", "result": "binds more weakly"}, {"measurement": "binding result", "setting": "[5]", "result": "binds more weakly"}]}
